According to PubChem BioAssay AID651784 (National Center for Advancing Translational Sciences (NCATS), 2012):
Inconclusive results, whose numbers are uncertain, are shown with a selection of clear calls. Potencies of inconclusive entries are doubtful fits and often do not repeat. Active and inactive are the calls of the source. Calls follow the shape of the dose curve; as a rule, active = well fitted inhibition curve with a large enough effect; inconclusive = small, poorly fitted or top-dose-only effect; inactive = no such curve, though single readings can be large or run the other way.

assay: Acumen qHTS Assay for Inhibitors of the mTORC1 Signaling Pathway in MEF (Tsc2-/-, p53-/-) Cells: Hit Validation; conditions: Acumen imaging;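 also: phospho-rpS6 Ser235/236 immunofluorescence normalized to propidium iodide cell count; nearly all actives have a fitted effect of over 65% in size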
Potency is read from the fitted curve at half-maximal effect.

| Structure (SMILES) | Potency |
| --- | --- |
| COc1ccc(C(C(=O)Nc2ccc(C(C)C)cc2)N(C)C(=O)Cc2cccs2)cc1 (stereo unspecified) | inconclusive: 2.93 µM [inhibitor, single point] |
| COc1ccccc1-c1noc(CSc2nc3ccc(C)cc3[nH]2)n1 | inconclusive: 26.1 µM [inhibitor, single point] |
| CCOc1ccc(NC(=O)CSc2oc(-c3ccc(F)cc3)nc2S(=O)(=O)c2ccc(C)cc2)cc1 | active: 4.65 µM |
| Cc1ccc(-n2c(SCC(=O)Nc3cccc(Cl)c3)nc3n[nH]c(C)c3c2=N)cc1 | inconclusive: 23.3 µM [inhibitor, single point] |
| CCC(C)S(=O)(=O)c1oc(-c2ccc(F)cc2)nc1S(=O)(=O)c1ccc(F)cc1 (stereo unspecified) | active: 1.31 µM |
| Cc1oc2c(cc(NS(=O)(=O)c3ccc(C(C)C)cc3)c3ccccc32)c1C(=O)OCc1ccccc1 | inconclusive: 13.1 µM [inhibitor, single point] |
| CSc1ccc(CCNC(=O)C(C)n2nc(C)c3sc4ccccc4c3c2=O)cc1 (stereo unspecified) | inconclusive: 18.5 µM [inhibitor, single point] |
| Cc1ccc(S(=O)(=O)c2nnn3c2nc(NC2CCCCC2)c2sccc23)cc1C | inconclusive: 23.3 µM [inhibitor, single point] |
| COc1ccc2c(Sc3ccccc3)c(C(=O)NCCCN3CCCCC3)[nH]c2c1 | inconclusive: 26.1 µM [inhibitor, single point] |
| CCS(=O)(=O)c1oc(-c2ccc(F)cc2)nc1S(=O)(=O)c1ccccc1 | active: 0.369 µM |
| COc1ccccc1C(=O)Nc1ccc(-c2cc(C(F)(F)F)nn2-c2ccccc2)cc1 | inconclusive: 14.7 µM [inhibitor, single point] |
| CCCCn1c(=N)n(CCOc2ccccc2OC)c2ccccc21 | active: 4.65 µM |
| COc1ccc(OC)c(NC(=O)c2nc(S(=O)(=O)Cc3ccc(F)cc3)ncc2Cl)c1 | active: 2.07 µM |
| CCOC(=O)Cn1c(=O)c2c(nc(N3CCOCC3)n2Cc2ccccc2)n(C)c1=O | active: 2.93 µM |
| Cc1cn([C@H]2C[C@H](N=[N+]=[N-])[C@@H](CO)O2)c(=O)[nH]c1=O | inconclusive: 29 µM [inhibitor, single point] |
| CC(C)COc1ccc(C(=O)NCC2(N3CCN(C)CC3)CCCCC2)cc1 | inconclusive: 23.3 µM [inhibitor, single point] |
| Cc1ccccc1Cn1c(CN2CCC(C(=O)NCCN(C)C)CC2)cc2ccccc21 | inconclusive: 13.1 µM [inhibitor, single point] |
| COc1cc(CN(C(=O)COc2ccc(C)c(C)c2)c2ccccn2)cc(OC)c1OC | inconclusive: 26.1 µM [inhibitor, single point] |

3 entries picked at random from the list so far:

| Structure (SMILES) | Potency |
| --- | --- |
| Cc1ccc(-n2c(SCC(=O)Nc3cccc(Cl)c3)nc3n[nH]c(C)c3c2=N)cc1 | inconclusive: 23.3 µM [inhibitor, single point] |
| CCOC(=O)Cn1c(=O)c2c(nc(N3CCOCC3)n2Cc2ccccc2)n(C)c1=O | active: 2.93 µM |
| Cc1oc2c(cc(NS(=O)(=O)c3ccc(C(C)C)cc3)c3ccccc32)c1C(=O)OCc1ccccc1 | inconclusive: 13.1 µM [inhibitor, single point] |

Further compounds

| Structure (SMILES) | Potency |
| --- | --- |
| CCC1CCc2nc3sc(C(=O)Nc4ccc(C)cc4)c(N)c3cc2C1 (stereo unspecified) | active: 8.26 µM |
| O=C(CC1(O)C(=O)N(CCc2ccccc2)c2ccc(Br)cc21)c1ccccc1O (stereo unspecified) | active: 6.56 µM |
| CCOC(=O)N1CCN(Cc2nc3cc(NC(C)=O)ccc3n2C(C)C)CC1 | inconclusive: 2.93 µM [inhibitor, single point] |
| Cn1nnnc1SCCCNCc1cc(Cl)ccc1OCc1ccc(F)cc1 | inconclusive: 13.1 µM [inhibitor, partial curve, poor fit] |
| CCN1CCOC(=O)C1CC(=O)Nc1cc(C)ccc1OC (stereo unspecified) | active: 10.4 µM |
| COc1ccc(CCN2C(=O)c3[nH]nc(-c4ccccc4O)c3C2c2ccc(OC)c(OC)c2)cc1 (stereo unspecified) | inconclusive: 23.3 µM [inhibitor, single point] |
| CCN(CC)Cc1c(NC(=O)c2ccc(OC)cc2)sc2c1CCCC2 | inconclusive: 1.47 µM [inhibitor, partial curve, poor fit] |
| Cc1ccc(Nc2nnc(-c3ccc(C)c(S(=O)(=O)N4CCOCC4)c3)c3ccccc23)c(C)c1 | inconclusive: 14.7 µM [inhibitor, single point] |
| CC(=O)C1=C(c2ccc(Cl)c(Cl)c2)N(C(C)=O)n2cnnc2S1 | active: 5.21 µM |
| O=C(CCn1cnc2onc(-c3ccc(F)cc3)c2c1=O)Nc1ccc(F)c(Cl)c1 | inconclusive: 26.1 µM [inhibitor, single point] |
| COc1ccc(OCC(=O)NCc2ccc3c(c2)CCN3C(=O)c2ccccc2)cc1 | active: 16.5 µM |
| CCCN(CCC)CCNC(=O)C1CCN(c2nc3ccc(CC)cc3s2)CC1 | inconclusive: 23.3 µM [inhibitor, single point] |
| Cc1cccc(N2CCN(CCNC(=O)Nc3ccc(Cl)cc3)CC2)c1C | inconclusive: 18.5 µM [inhibitor, single point] |
| COc1cc(Cl)c(C)cc1NC(=O)C1CCN(c2nc3ccccc3n3cccc23)CC1 | inconclusive: 13.1 µM [inhibitor, single point] |
| Cc1ccc2nc(/C(C#N)=C/c3ccc(-c4ccc(F)cc4F)o3)[nH]c2c1 | inconclusive: 14.7 µM [inhibitor, single point] |
| CCOc1ccc(C(=O)NCCc2sc(-c3ccc(C)cc3)nc2C)cc1 | inconclusive: 13.1 µM [inhibitor, single point] |
| Cc1cccc(-n2cnc3cc(C(=O)NC4CCCCCC4)ccc32)c1 | active: 18.5 µM |
| CCN(CCN(C)C)C(=O)C1CCN(S(=O)(=O)c2c(C)noc2/C=C/c2ccccc2F)CC1 | inconclusive: 0.414 µM [inhibitor, single point] |
